Experimental data: PubChem BioAssay AID328 (DTP/NCI, 2004)
The list does not hold the whole screen: it is rich in T/C values a quarter to a half above the control, in often repeated tests (any T/C) and in doses without a T/C. Other doses and runs of a compound stand elsewhere. T/C gives the treated animals as a percentage of the vehicle group. Some doses have a count of surviving animals in place of a T/C: the source holds a T/C of zero for them, seemingly a mark for toxic or unscored doses. Some survivor counts are full or nearly so, which does not show that the dose was tolerated: the source hardly ever lists a survival T/C far under the control, and the zero likely stands for such cases as well. Survivors were counted at the toxicity check, usually on the fifth day, unless a day is given; later deaths do not show. Schedules are NCI's codes, read here as Q, the interval in days (D) or hours (H), X, the number of doses. Where survival is the endpoint, the PubChem record calls one and a half times the control and up active, and a quarter to a half above the control has no call in these data; cut-offs in other NCI protocols can differ. Some T/C values are followed by the survivors on the day toxicity was checked, most often the fifth; where none is given, no animal had died by that day. Residues, ends and D or L forms follow the SMILES beside them.

Tested on: BDF1 mice, P388 leukemia ip, median survival T/C
Test: NCI In Vivo Anticancer Drug Screen. Data for tumor model P388 Leukemia (intraperitoneal) in B6D2F1 (BDF1) mice
Settings: T/C endpoint: median survival time, higher T/C = longer survival
In short: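 Read-out is survival of treated animals expressed relative to the vehicle group, as a T/C ratio.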

[1] = dose: 200.0 mg/kg/injection, schedule: Q01DX009 (ip), vehicle: saline with Tween-80
[2] = dose: 200.0 mg/kg/injection, schedule: Q01DX009 (ip), vehicle: water
[3] = dose: 400.0 mg/kg/injection, schedule: Q01DX009 (ip), vehicle: water
[4] = dose: 400.0 mg/kg/injection, schedule: Q04DX003 (ip), vehicle: saline with Tween-80
[5] = dose: 50.0 mg/kg/injection, schedule: Q01DX009 (ip), vehicle: saline with Tween-80
[6] = dose: 100.0 mg/kg/injection, schedule: Q01DX009 (ip), vehicle: saline with Tween-80
[7] = dose: 12.5 mg/kg/injection, schedule: Q01DX009 (ip), vehicle: saline with Tween-80
[8] = dose: 25.0 mg/kg/injection, schedule: Q01DX009 (ip), vehicle: saline with Tween-80

C(CCC1CO1)CC1CO1 (configuration not stated)
survivor count (dose: 200.0 mg/kg/injection, schedule: Q04DX002 (ip), vehicle: saline with Tween-80): 6 of 6 | survivor count (dose: 400.0 mg/kg/injection, schedule: Q04DX002 (ip), vehicle: saline with Tween-80): 6 of 6

Cc1[nH]c(=O)[nH]c(=O)c1N(CCF)CCCl
T/C (dose: 5.0 mg/kg/injection, schedule: Q01DX009 (ip), vehicle: saline): 133 % of control | T/C (dose: 20.0 mg/kg/injection, schedule: Q01DX009 (ip), vehicle: Klucel (hydroxypropylcellulose) (HPC)): 145 % of control | survivor count (dose: 20.0 mg/kg/injection, schedule: Q01DX009 (ip), vehicle: saline): 10 of 10 | survivor count (dose: 40.0 mg/kg/injection, schedule: Q01DX009 (ip), vehicle: Klucel (hydroxypropylcellulose) (HPC)): 1 of 6 | survivor count (dose: 40.0 mg/kg/injection, schedule: Q01DX009 (ip), vehicle: saline): 8 of 10 | survivor count (dose: 80.0 mg/kg/injection, schedule: Q01DX009 (ip), vehicle: Klucel (hydroxypropylcellulose) (HPC)): 1 of 6 | survivor count (dose: 80.0 mg/kg/injection, schedule: Q01DX009 (ip), vehicle: saline): 5 of 10

CN(C)c1ccc(/C=C/c2ccnc3c(-c4ccccc4)cccc23)cc1
survivor count [1]: 5 of 6

COc1cc2cc(c1Cl)N(C)C(=O)CC(OC(=O)C(F)(F)F)C1(C)OC1C(C)C1CC(O)(NC(=O)O1)C(OC)C=C/C=C(\C)C2 (configuration not stated)
T/C (dose: 25.0 micrograms/kg/injection, schedule: Q01DX009 (ip), vehicle: saline + alcohol): 130 % of control | T/C (dose: 50.0 micrograms/kg/injection, schedule: Q01DX009 (ip), vehicle: saline + alcohol): 130 % of control | T/C (dose: 200.0 micrograms/kg/injection, schedule: Q01DX009 (ip), vehicle: saline + alcohol): 140 % of control

CC[C@@]1(O)C[C@H](OC2CC(N(C)C)C(OC3CC4OC5CC(=O)C(C)OC5OC4C(C)O3)C(C)O2)c2c(cc3c(c2O)C(=O)c2c(O)cccc2C3=O)[C@H]1C(=O)OC (some centres not stated)
T/C (dose: 0.5 mg/kg/injection, schedule: Q01DX009 (ip), vehicle: water): 133 % of control | T/C (dose: 1.0 mg/kg/injection, schedule: Q01DX009 (ip), vehicle: water): 125 % of control | T/C (dose: 2.0 mg/kg/injection, schedule: Q01DX009 (ip), vehicle: water): 136 % of control | survivor count (dose: 8.0 mg/kg/injection, schedule: Q01DX009 (ip), vehicle: water): 2 of 6

C[N+](C)(CCc1ccccc1)CC(O)COc1ccccc1 (configuration not stated)
survivor count (dose: 38.0 mg/kg/injection, schedule: Q01DX009 (ip), vehicle: Klucel (hydroxypropylcellulose) (HPC)): 1 of 6

CCN(CC)Cc1nc2nc(Cl)c(Cl)nc2[nH]1
survivor count (dose: 12.5 mg/kg/injection, schedule: Q04DX003 (ip), vehicle: saline with Tween-80): 5 of 6 | survivor count (dose: 100.0 mg/kg/injection, schedule: Q04DX003 (ip), vehicle: saline with Tween-80): 0 of 6 | survivor count (dose: 200.0 mg/kg/injection, schedule: Q04DX003 (ip), vehicle: saline with Tween-80): 0 of 6

O=C(O)C(O)C(O)C(=O)O.O=C(O)C(O)C(O)C(=O)O.[O]=[V].[O]=[V] (configuration not stated)
survivor count (dose: 12.5 mg/kg/injection, schedule: Q01DX009 (ip), vehicle: saline): 6 of 6

COCCOP(=O)(N1CC1)N1CC1
survivor count (dose: 200.0 mg/kg/injection, schedule: Q04DX003 (ip), vehicle: saline): 6 of 6 | survivor count (dose: 400.0 mg/kg/injection, schedule: Q04DX003 (ip), vehicle: saline): 0 of 6

ClC1=C(Br)C(Br)(Br)C(=C(Br)Br)C1(Br)Br
survivor count (dose: 200.0 mg/kg/injection, schedule: Q04DX003 (ip), vehicle: Klucel (hydroxypropylcellulose) (HPC)): 6 of 6

c1ccc(-c2c(-c3ccccc3)c(-c3ccccc3)c(-c3ccccc3)c(-c3ccccc3)c2-c2ccccc2)cc1
survivor count (dose: 25.0 mg/kg/injection, schedule: Q01DX009 (ip), vehicle: water): 6 of 6 | survivor count [2]: 6 of 6 | survivor count [3]: 6 of 6

C[C@]12CCC(=O)C[C@@H]1CC[C@@H]1[C@@H]2CC[C@]2(C)[C@@H](OC(=O)N(CCCl)N=O)CC[C@@H]12
survivor count (dose: 50.0 mg/kg/injection, schedule: Q01DX009 (ip), vehicle: saline): 6 of 6 | survivor count (dose: 200.0 mg/kg/injection, schedule: Q01DX009 (ip), vehicle: saline): 6 of 6

[NH-]C(CCC(N)=O)C(=O)O.[NH-]C(CCCCN)C(=O)O.[Zn+2] (configuration not stated)
survivor count (dose: 100.0 mg/kg/injection, schedule: Q01DX005 (ip), vehicle: saline): 3 of 5 | survivor count (dose: 200.0 mg/kg/injection, schedule: Q01DX005 (ip), vehicle: saline): 0 of 5

CC(=O)c1ccc(NC(=O)N(CCCl)N=O)cc1
T/C (dose: 0.66 mg/kg/injection, schedule: Q04DX003 (ip), vehicle: saline): 127 % of control | T/C (dose: 1.5 mg/kg/injection, schedule: Q04DX003 (ip), vehicle: Klucel (hydroxypropylcellulose) (HPC)): 133 % of control | T/C (dose: 2.3 mg/kg/injection, schedule: Q04DX003 (ip), vehicle: Klucel (hydroxypropylcellulose) (HPC)): 137 % of control

Cn1c(CC(O)(C(F)(F)Cl)C(F)(F)Cl)cc(=O)n1-c1ccccc1
survivor count [4]: 1 of 6

Clc1ccc(-c2cc(=[N+]3CCOCC3)ss2)cc1
survivor count [2]: 4 of 6 | survivor count [3]: 0 of 6 | survivor count (dose: 400.0 mg/kg/injection, schedule: Q04DX003 (ip), vehicle: water): 4 of 6

O=[N+]([O-])c1cc([N+](=O)[O-])c2ccccc2c1NS(=O)(=O)c1ccc(Cl)c(Cl)c1Cl
T/C [1]: 127 % of control [4 of 6 alive]

CC(C(O)c1cccs1)C(O)(C(F)(F)F)C(F)(F)F (configuration not stated)
survivor count [4]: 6 of 6

CC(=O)NC(C)C(=O)NC(C)C(=O)NC(C)C(=O)NC(C)C(=O)O (configuration not stated) (Ac-AAAA-OH; configuration not given here)
survivor count (dose: 200.0 mg/kg/injection, schedule: Q01DX005 (ip), vehicle: saline with Tween-80): 6 of 6

CC1(C)COCN1COCCCOCN1COCC1(C)C
T/C [5]: 148 % of control | T/C [6]: 139 % of control | survivor count [1]: 2 of 6

c1ccc(-c2c[se]nn2)cc1
survivor count [7]: 5 of 6 | survivor count [8]: 4 of 6 | survivor count [5]: 4 of 6 | survivor count [6]: 0 of 6 | survivor count [1]: 0 of 6

N/C(=N\O)c1cn(C2OC(CO)C(O)C2O)c2ncnc(N)c12 (configuration not stated)
T/C (dose: 0.3 mg/kg/injection, schedule: Q01DX009 (ip), vehicle: Klucel (hydroxypropylcellulose) (HPC)): 136 % of control

CC1=CC(=O)C(C(C)C)=CC1=O
survivor count [7]: 1 of 6 | survivor count [8]: 2 of 6 | survivor count [5]: 0 of 6

CC(C)=CCNc1ncnc2c1ncn2C1OC(CO)C(O)C1O (configuration not stated)
survivor count [4]: 2 of 6

C=C(Br)CNCCCCCC
survivor count (dose: 45.0 mg/kg/injection, schedule: Q04DX003 (ip), vehicle: Klucel (hydroxypropylcellulose) (HPC)): 0 of 6 | survivor count (dose: 150.0 mg/kg/injection, schedule: Q04DX003 (ip), vehicle: Klucel (hydroxypropylcellulose) (HPC)): 0 of 6
